Results are given in words; binding and its absence hold for the method and conditions named.
Legend:
Experiment in all cases: ELISA; complement proteins immobilised in microtiter plates; 25 nM hFH or MFHR1^V62; detected with anti-FH polyclonal antibodies; both purified
C8 (human) = C8 (human) (UniProt P07357+P07358+P07360)
C6 (human) = C6 (human) (UniProt P13671)
C7 (human) = C7 (human) (UniProt P10643)
C9 (human) = C9 (human) (UniProt P02748)

The chains behind the UniProt entries cited, without tags or fusion partners. Where a name states a change or a piece, a line headed by the entry shows the natural chain unless it says otherwise. Residues count along the entry.
UniProt P07357: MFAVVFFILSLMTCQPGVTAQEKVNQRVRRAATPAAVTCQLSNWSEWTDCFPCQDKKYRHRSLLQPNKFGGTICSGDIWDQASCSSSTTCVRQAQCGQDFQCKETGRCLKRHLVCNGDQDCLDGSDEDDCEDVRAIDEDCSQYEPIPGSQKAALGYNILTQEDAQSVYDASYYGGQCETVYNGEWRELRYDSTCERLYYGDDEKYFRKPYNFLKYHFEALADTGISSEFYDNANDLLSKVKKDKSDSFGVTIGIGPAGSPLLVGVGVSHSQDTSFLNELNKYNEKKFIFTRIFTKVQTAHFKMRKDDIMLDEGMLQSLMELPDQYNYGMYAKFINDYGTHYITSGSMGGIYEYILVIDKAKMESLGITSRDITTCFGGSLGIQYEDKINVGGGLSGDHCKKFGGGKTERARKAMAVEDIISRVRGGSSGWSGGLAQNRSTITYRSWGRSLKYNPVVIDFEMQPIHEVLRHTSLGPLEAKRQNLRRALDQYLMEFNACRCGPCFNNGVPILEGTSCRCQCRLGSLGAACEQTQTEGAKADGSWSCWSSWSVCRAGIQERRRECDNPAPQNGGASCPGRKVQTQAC
UniProt P07358: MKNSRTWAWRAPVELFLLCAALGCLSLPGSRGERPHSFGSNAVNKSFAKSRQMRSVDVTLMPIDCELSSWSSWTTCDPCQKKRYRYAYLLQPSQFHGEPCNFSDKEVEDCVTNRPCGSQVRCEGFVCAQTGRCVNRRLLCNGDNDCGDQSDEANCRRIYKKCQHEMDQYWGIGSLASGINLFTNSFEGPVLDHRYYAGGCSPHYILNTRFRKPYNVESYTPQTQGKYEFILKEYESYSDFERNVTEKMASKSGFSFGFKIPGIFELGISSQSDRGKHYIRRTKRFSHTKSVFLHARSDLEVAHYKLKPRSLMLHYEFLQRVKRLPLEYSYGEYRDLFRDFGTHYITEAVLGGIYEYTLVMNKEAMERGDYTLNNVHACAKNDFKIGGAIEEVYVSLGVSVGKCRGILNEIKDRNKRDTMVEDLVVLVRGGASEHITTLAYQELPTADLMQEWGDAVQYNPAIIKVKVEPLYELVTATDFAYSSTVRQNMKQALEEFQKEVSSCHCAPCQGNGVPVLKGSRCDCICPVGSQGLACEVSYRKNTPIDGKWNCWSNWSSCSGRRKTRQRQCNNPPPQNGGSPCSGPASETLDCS
UniProt P07360: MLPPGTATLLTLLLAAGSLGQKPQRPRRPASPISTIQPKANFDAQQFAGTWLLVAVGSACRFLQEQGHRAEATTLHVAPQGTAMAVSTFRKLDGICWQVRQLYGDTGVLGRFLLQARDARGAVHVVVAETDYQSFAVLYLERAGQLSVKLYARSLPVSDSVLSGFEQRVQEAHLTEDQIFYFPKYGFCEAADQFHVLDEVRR
UniProt P13671, residues 22-934: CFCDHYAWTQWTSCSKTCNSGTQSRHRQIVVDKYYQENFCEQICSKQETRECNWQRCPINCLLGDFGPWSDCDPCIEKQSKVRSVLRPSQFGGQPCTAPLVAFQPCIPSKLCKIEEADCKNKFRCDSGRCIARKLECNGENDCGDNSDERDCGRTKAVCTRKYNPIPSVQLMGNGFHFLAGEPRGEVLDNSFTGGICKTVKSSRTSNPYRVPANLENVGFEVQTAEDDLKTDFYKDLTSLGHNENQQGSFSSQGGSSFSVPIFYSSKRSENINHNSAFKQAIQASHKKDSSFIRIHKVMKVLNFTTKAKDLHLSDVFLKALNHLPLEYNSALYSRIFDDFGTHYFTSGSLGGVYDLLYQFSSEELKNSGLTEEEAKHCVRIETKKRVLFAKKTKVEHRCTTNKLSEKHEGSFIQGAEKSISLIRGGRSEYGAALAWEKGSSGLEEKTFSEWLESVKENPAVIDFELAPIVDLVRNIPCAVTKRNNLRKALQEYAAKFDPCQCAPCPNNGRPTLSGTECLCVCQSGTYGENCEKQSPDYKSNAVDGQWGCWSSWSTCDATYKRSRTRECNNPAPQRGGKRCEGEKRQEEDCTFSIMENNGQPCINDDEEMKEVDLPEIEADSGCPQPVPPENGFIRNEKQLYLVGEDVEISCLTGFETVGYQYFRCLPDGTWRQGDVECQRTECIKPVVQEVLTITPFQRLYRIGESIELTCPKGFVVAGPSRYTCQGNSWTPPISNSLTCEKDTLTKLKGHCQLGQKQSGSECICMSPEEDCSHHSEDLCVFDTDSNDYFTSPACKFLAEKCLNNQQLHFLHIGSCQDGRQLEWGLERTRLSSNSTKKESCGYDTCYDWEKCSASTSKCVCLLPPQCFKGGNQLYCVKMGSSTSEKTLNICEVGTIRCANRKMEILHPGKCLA
UniProt P10643, residues 23-843: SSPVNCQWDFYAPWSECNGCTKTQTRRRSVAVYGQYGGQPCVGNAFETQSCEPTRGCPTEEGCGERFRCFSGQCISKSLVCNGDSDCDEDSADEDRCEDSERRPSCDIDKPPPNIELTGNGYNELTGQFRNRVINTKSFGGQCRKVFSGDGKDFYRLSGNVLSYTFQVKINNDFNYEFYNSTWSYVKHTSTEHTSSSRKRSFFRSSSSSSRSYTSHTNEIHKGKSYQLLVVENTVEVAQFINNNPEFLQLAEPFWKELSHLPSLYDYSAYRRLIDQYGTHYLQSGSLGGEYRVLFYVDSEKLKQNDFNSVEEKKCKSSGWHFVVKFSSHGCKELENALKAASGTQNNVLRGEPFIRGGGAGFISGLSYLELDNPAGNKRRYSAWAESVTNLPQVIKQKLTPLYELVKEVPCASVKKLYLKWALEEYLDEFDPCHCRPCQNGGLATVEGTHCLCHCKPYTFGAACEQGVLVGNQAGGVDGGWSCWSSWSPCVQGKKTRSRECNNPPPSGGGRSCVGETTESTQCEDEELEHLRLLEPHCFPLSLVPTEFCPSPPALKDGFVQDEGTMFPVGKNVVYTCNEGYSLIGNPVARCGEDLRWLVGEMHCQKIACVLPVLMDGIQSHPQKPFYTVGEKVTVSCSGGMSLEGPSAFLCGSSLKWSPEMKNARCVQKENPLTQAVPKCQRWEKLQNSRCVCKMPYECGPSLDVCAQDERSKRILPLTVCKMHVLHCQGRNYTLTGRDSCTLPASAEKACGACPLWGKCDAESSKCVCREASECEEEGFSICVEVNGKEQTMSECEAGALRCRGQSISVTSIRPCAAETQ
UniProt P02748, residues 22-559: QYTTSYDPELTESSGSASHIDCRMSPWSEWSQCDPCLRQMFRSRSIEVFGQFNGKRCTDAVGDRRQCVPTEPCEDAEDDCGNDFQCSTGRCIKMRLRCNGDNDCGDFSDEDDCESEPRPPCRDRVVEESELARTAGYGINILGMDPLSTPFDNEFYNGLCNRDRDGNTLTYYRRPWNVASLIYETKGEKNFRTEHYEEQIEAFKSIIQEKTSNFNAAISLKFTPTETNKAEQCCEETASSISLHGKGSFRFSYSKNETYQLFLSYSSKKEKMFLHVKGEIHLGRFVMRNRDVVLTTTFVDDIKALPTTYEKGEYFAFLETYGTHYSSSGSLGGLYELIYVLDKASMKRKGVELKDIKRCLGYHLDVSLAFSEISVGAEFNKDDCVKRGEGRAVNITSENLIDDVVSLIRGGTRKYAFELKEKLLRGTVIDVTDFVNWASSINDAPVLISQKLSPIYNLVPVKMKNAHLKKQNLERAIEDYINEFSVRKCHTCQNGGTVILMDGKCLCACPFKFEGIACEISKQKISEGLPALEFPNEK
UniProt P08603, residues 19-1231: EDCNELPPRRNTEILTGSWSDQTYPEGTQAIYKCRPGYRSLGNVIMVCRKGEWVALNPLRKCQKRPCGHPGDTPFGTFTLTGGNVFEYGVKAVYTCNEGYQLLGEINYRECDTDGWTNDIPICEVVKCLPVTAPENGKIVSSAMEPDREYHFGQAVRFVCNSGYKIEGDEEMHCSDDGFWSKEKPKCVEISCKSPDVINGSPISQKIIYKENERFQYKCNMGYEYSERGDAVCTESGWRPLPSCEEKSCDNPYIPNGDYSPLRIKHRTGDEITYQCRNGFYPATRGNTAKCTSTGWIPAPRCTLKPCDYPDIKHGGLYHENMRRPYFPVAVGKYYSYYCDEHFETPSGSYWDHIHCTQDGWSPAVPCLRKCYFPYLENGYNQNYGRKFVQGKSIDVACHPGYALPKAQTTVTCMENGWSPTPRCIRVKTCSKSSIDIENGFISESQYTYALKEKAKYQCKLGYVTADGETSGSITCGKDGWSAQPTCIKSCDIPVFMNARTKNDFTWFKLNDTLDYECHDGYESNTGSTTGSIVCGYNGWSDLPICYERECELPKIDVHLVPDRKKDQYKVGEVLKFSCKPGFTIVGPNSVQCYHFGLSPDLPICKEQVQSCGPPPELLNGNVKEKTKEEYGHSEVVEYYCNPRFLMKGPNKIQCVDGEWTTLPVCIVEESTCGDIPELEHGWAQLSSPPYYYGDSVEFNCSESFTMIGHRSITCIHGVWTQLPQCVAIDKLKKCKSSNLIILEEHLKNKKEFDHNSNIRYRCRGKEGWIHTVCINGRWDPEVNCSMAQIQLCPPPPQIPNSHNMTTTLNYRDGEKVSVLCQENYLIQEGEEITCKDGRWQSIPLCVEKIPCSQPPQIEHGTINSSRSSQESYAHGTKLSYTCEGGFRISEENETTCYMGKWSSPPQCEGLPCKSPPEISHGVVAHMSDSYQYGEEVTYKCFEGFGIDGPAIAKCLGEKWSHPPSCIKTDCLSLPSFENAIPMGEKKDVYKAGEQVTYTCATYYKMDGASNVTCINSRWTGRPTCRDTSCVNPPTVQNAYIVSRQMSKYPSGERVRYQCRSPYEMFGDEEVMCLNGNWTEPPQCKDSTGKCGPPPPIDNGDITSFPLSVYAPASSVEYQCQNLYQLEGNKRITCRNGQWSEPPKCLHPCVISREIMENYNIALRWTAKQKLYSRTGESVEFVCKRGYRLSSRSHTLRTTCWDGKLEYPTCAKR

Measured: binding

human factor H, plasma-derived (hFH) (from UniProt P08603 19-1231)
no binding (tested: 25 nM): all assays above

Reference: PMC8863895
